This note sets out measurements from the supplement of paper PMC4635364.

Structures can show the parent of a compound that is named as a salt. The list shows a part of the results. Single values are uncertain here, since repeats match poorly.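 Human fetal ventral-midbrain neural progenitor line ReNCell VM, differentiated without mitogens. Images stained for doublecortin (early neurons) or tyrosine hydroxylase (dopaminergic neurons) were scored by blinded raters against untreated wells (0 = no change). Repeats and both raters were averaged, and compounds averaging 2 or higher were picked as hits for retesting.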

The test system of experiment [1] is ReNCell VM. Briefly: neuronal differentiation score (DCX+ cell fraction vs untreated, manual image score) (score (-3 to 3)); higher = more neuronal differentiation. To be noted: 2 uM, 2 weeks.
Experiment [2] relates to ReNCell VM. The experiment can be described thus: dopaminergic neuron differentiation score (TH+ cell fraction vs untreated, manual image score) (score (0 to 3)); higher = more TH+ dopaminergic neuron differentiation. To be noted: 2 uM, 4 weeks, BDNF 10 ng/ml + GDNF 10 ng/ml.

On to `CCn1cc(C(=O)O)c(=O)c2ccc(C)nc21` [Nalidixic acid sodium salt], for which, in experiment [1] (library: Prestwick), the neuronal differentiation score was inactive: 0. In experiment [2] (library: Prestwick), the “dopaminergic neuron differentiation score” value is inactive: 0.

In the case of `CC(C)n1c(/C=C/C(O)CC(O)CC(=O)O)c(-c2ccc(F)cc2)c2ccccc21` (stereo not drawn), the neuronal differentiation score in experiment [1] (library: Spectrum) was active: 3. The “dopaminergic neuron differentiation score” value in experiment [2] (library: Spectrum) is inactive: 1.

For the molecule `CC(C(=O)O)c1ccc(-c2ccccc2)c(F)c1` (stereo not drawn), in experiment [1] (library: Spectrum), the neuronal differentiation score is inactive: 0. For the same molecule, the “dopaminergic neuron differentiation score” value in experiment [2] (library: Spectrum) is inactive: 0.

As for `COc1ccc2c(c1OC)C(=O)O[C@@H]2[C@H]1c2c(cc3c(c2OC)OCO3)CCN1C` [Noscapine], the neuronal differentiation score in experiment [1] (library: Phytochemical) is inactive: 0. For the same molecule, the “dopaminergic neuron differentiation score” value in experiment [2] (library: Phytochemical) was inactive: 0.

On to `O=Nc1ccc(O)c2ncccc12`, for which the neuronal differentiation score in experiment [1] (library: Tocriscreen) is inactive: 0. The “dopaminergic neuron differentiation score” value in experiment [2] (library: Tocriscreen) was inactive: 0.

With `Cc1cc(CC(C)CC(C)(C)C)n(O)c(=O)c1` (stereo not drawn), in experiment [1] (library: Spectrum), the neuronal differentiation score is inactive: 0. Moreover, in experiment [2] (library: Spectrum), the “dopaminergic neuron differentiation score” value was inactive: 0.

As to `O=c1cc(-c2ccccc2)oc2ccc(O)cc12`, in experiment [1] (library: Spectrum), the neuronal differentiation score is inactive: 0. In experiment [2] (library: Spectrum), the “dopaminergic neuron differentiation score” value was inactive: 0.

As to `Cc1ncc(COP(=O)([O-])[O-])c(CN(CCN(CC(=O)O)Cc2c(COP(=O)([O-])O)cnc(C)c2O)CC(=O)O)c1O.[Mn].[Na+].[Na+].[Na+]`, in experiment [1] (library: Spectrum), the neuronal differentiation score was inactive: 0. Besides, the “dopaminergic neuron differentiation score” value in experiment [2] (library: Spectrum) is inactive: 0.

On to `NC(=O)c1ccccc1O`, for which, in experiment [1] (library: Spectrum), the neuronal differentiation score is inactive: 0. In experiment [2] (library: Spectrum), the “dopaminergic neuron differentiation score” value is inactive: 0.

Consider `CCCCCCc1ccc(O)cc1O`, for which the neuronal differentiation score in experiment [1] (library: Spectrum) is inactive: 0. Also, in experiment [2] (library: Spectrum), the “dopaminergic neuron differentiation score” value was inactive: 0.

For `CO[C@H]1/C=C/O[C@@]2(C)Oc3c(C)c(O)c4c(O)c(c5c(nc6cc(C)ccn65)c4c3C2=O)NC(=O)/C(C)=C\C=C\[C@H](C)[C@H](O)[C@@H](C)[C@@H](O)[C@@H](C)[C@H](OC(C)=O)[C@@H]1C` [Rifaximin], the neuronal differentiation score in experiment [1] (library: Prestwick) is inactive: 0. Also, the “dopaminergic neuron differentiation score” value in experiment [2] (library: Prestwick) was active: 3.

With `CC(=O)OCC1=C(C(=O)O)N2C(=O)[C@@H](NC(=O)Cc3cccs3)[C@H]2SC1` [Cephalothin sodium salt], the neuronal differentiation score in experiment [1] (library: Prestwick) is inactive: 0. The “dopaminergic neuron differentiation score” value in experiment [2] (library: Prestwick) was inactive: 0.

As for `CC(CN(C)C)C(C)(O)Cc1ccc(Cl)cc1` (stereo not drawn) [Clobutinol hydrochloride], in experiment [1] (library: Prestwick), the neuronal differentiation score was inactive: 0. The “dopaminergic neuron differentiation score” value in experiment [2] (library: Prestwick) is inactive: 0.

Turning to `CC(=O)OC[C@H]1O[C@@H]([S-])[C@H](OC(C)=O)[C@@H](OC(C)=O)[C@@H]1OC(C)=O.CCP(CC)CC.[Au+]` [Auranofin], the neuronal differentiation score in experiment [1] (library: Prestwick) was inactive: 0. For the same molecule, the “dopaminergic neuron differentiation score” value in experiment [2] (library: Prestwick) is inactive: 0.

As for `COc1cc(NC(C)CCCN)c2ncccc2c1` (stereo not drawn), in experiment [1] (library: Spectrum), the neuronal differentiation score was inactive: 0. For the same molecule, the “dopaminergic neuron differentiation score” value in experiment [2] (library: Spectrum) was inactive: 0.

Consider `CCCCCCNC(=O)Nc1ccc(S(=O)(=O)Nc2ccc(CCNC[C@H](O)COc3ccc(O)cc3)cc2)cc1`, for which the neuronal differentiation score in experiment [1] (library: Tocriscreen) is inactive: 0. The “dopaminergic neuron differentiation score” value in experiment [2] (library: Tocriscreen) was inactive: 0.

Regarding `CC1(C)CCCC2(C)C1CCC(C)(O)C2CCC(C)(O)C1CO1` (stereo not drawn), the neuronal differentiation score in experiment [1] (library: Natural) is inactive: 0. In experiment [2] (library: Natural), the “dopaminergic neuron differentiation score” value was inactive: 0.

As to `CC(=O)N(O)CCCCCNC(=O)CCC(=O)N(O)CCCCCNC(=O)CCC(=O)N(O)CCCCCN`, the neuronal differentiation score in experiment [1] (library: Spectrum) was inactive: 0. Further, the “dopaminergic neuron differentiation score” value in experiment [2] (library: Spectrum) was inactive: 0.

Regarding `Nc1ccc(/N=N/c2ccccc2)c(N)n1`, the neuronal differentiation score in experiment [1] (library: Spectrum) is inactive: 0. For the same molecule, in experiment [2] (library: Spectrum), the “dopaminergic neuron differentiation score” value is inactive: 0.

Regarding `CNC(=N)NCCC[C@H](N)C(=O)O`, the neuronal differentiation score in experiment [1] (library: Spectrum) was inactive: 0. In experiment [2] (library: Spectrum), the “dopaminergic neuron differentiation score” value is inactive: 0.

As to `CN1CCN2c3ncccc3Cc3ccccc3C2C1` (stereo not drawn) [Mirtazapine], in experiment [1] (library: Prestwick), the neuronal differentiation score was inactive: 0. Also, in experiment [2] (library: Prestwick), the “dopaminergic neuron differentiation score” value is inactive: 0.

`O=C(O)C1CSCN1` (stereo not drawn): the neuronal differentiation score in experiment [1] (library: Spectrum) is inactive: 0. In addition, the “dopaminergic neuron differentiation score” value in experiment [2] (library: Spectrum) was inactive: 0.

Consider `CC(=O)O[C@H]1C[C@@H](OC(C)=O)C(C)(C)C2C[C@@H](O)[C@]3(C)C(CC[C@@]4(C)[C@H](c5ccoc5)OC(=O)[C@H]5O[C@]543)[C@]21C` (stereo partly drawn), for which, in experiment [1] (library: Spectrum), the neuronal differentiation score was inactive: 0. Further, the “dopaminergic neuron differentiation score” value in experiment [2] (library: Spectrum) was inactive: 0.

`C[C@@H](O)[C@H]1C(=O)N2C(C(=O)O)=C(S[C@@H]3CN[C@H](C(=O)N(C)C)C3)[C@H](C)[C@H]12` [Meropenem]: the neuronal differentiation score in experiment [1] (library: Prestwick) was inactive: 0. Also, in experiment [2] (library: Prestwick), the “dopaminergic neuron differentiation score” value was inactive: 0.

Take `Nc1ncn([C@@H]2O[C@H](CO)[C@@H](O)[C@H]2O)c(=O)n1` [5-azacytidine]: in experiment [1] (library: LOPAC), the neuronal differentiation score was inactive: -3. For the same molecule, in experiment [2] (library: LOPAC), the “dopaminergic neuron differentiation score” value was inactive: 0.

As for `Nc1c2c(nc3ccccc13)CCCC2` [9-Amino-1,2,3,4-tetrahydroacridine hydrochloride], the neuronal differentiation score in experiment [1] (library: LOPAC) was inactive: 0. The “dopaminergic neuron differentiation score” value in experiment [2] (library: LOPAC) was inactive: 0.

For `Cc1ccc(C)c(OCCCC(C)(C)C(=O)O)c1` [Gemfibrozil], in experiment [1] (library: Prestwick), the neuronal differentiation score is inactive: 0. In addition, the “dopaminergic neuron differentiation score” value in experiment [2] (library: Prestwick) was inactive: 0.

On to `O=C(O)C1=C[C@@H](O)[C@@H](O)[C@H](O)C1`, for which the neuronal differentiation score in experiment [1] (library: Spectrum) was inactive: 0. Further, the “dopaminergic neuron differentiation score” value in experiment [2] (library: Spectrum) was inactive: 0.

For the molecule `CN1CCC(=C2c3ccccc3CCc3cccnc32)CC1`, the neuronal differentiation score in experiment [1] (library: Spectrum) is inactive: 0. In addition, in experiment [2] (library: Spectrum), the “dopaminergic neuron differentiation score” value was inactive: 0.

In the case of `CN1CCN(C(c2ccccc2)c2ccccc2)CC1`, the neuronal differentiation score in experiment [1] (library: Spectrum) was inactive: 0. Further, the “dopaminergic neuron differentiation score” value in experiment [2] (library: Spectrum) is inactive: 0.

Regarding `CC(=O)Oc1c(C)c(C)c2c(c1C)CCC(C)(CCCC(C)CCCC(C)CCCC(C)C)O2` (stereo not drawn) [alpha-TOCHOPHERYL ACETATE], the neuronal differentiation score in experiment [1] (library: Spectrum) is inactive: 0. For the same molecule, in experiment [2] (library: Spectrum), the “dopaminergic neuron differentiation score” value was inactive: 0.

In the case of `O=c1cc[nH]c(=O)[nH]1`, in experiment [1] (library: Spectrum), the neuronal differentiation score is inactive: 0. Also, the “dopaminergic neuron differentiation score” value in experiment [2] (library: Spectrum) was inactive: 0.

Take `COc1ccc(C=CC(=O)C=Cc2ccc(OC)cc2OC)c(OC)c1` [1,5-bis-(2,4-dimethoxy-phenyl)-penta-1,4-dien-3-one]: the neuronal differentiation score in experiment [1] (library: Natural) was inactive: 0. The “dopaminergic neuron differentiation score” value in experiment [2] (library: Natural) is inactive: 0.

Take `COc1cc(NS(C)(=O)=O)ccc1Nc1c2ccccc2nc2ccccc12` [Amsacrine hydrochloride]: the neuronal differentiation score in experiment [1] (library: LOPAC) was inactive: 0. In addition, the “dopaminergic neuron differentiation score” value in experiment [2] (library: LOPAC) was inactive: 0.
